# Measured values reported in PubChem BioAssay AID1347075 (National Center for Advancing Translational Sciences (NCATS), 2019).
# Hit rate of the full screen: of about 400,000 compounds, about 5,500 (1.4%) were called active. Listed are the inconclusive results; actives and inactives stand elsewhere. Calls follow the shape of the dose curve; as a rule, active = well fitted cell-killing curve with a large enough effect; inconclusive = small, poorly fitted or top-dose-only effect, or effect the other way; inactive = flat fitted curve, though single readings scatter.
# Assay: qHTS assay for MDR1-selective chemotherapeutics: Primary screen using the parental adenocarcinoma cell KB-3-1; also: nearly all actives have a fitted effect of over 60% in size
# Conditions: KB-3-1 viability, CellTiter-Glo ATP luminescence, 72 h
# From the text: A prime difficulty in effectively treating cancer is the development of cellular resistance to multiple structurally unrelated anticancer drugs, a phenomenon known as multidrug resistance (MDR). […] Numerous strategies to overcome P-gp-mediated MDR have been explored, including the design of drugs that evade recognition and efflux, and development of inhibitors to block efflux and restore drug accumulation. […] An alternative approach is to exploit resistance by identifying drugs that target MDR cells over the non-resistant parental cells from which they were selected. […] The development of MDR1-selective agents represents a new strategy for resolving multidrug resistance, as it remains a long-standing clinical challenge for cancer chemotherapy.
# Our goal is to identify compounds that selectively kill P-gp-expressing MDR cells. We will identify MDR1-selective compounds by comparing toxicity of compounds in the screening library against parental, drug-naive (KB-3-1) adenocarcinoma cells as well as their drug-selected MDR sub-line (KB-V1). The differential toxicity of compounds against these two cell lines will be used to identify MDR1-selective compounds, whose cytotoxicity is potentiated, rather than diminished, by P-gp expression. This assay will be utilized to conduct a quantitative high-throughput screen (qHTS) in collaboration with the NIH Chemical Genomics Center to identify selective agents, and probe hits arising from the screen will be validated using secondary assays and characterized through a well-established follow-up research program. This screen was run against the entire NCGC library collection of about 400,000 compounds.
# NIH Molecular Libraries Probe Production Network [MLPCN]
# NIH Chemical Genomics Center [NCGC]
# PI: Michael Gottesman PhD, National Cancer Institute, NIH
# Briefly, 5 microL of media containing either KB-3-1 cells (columns 1-2, 4-48) are dispensed into Greiner white, treated solid-bottom 1536-well assay plates (media-only control is added to column 3). Compounds are then transferred via Kalypsys pin tool equipped with 1536-pin array (10 nL slotted pins, V&P Scientific, San Diego, CA). Following addition of compound, the plates are incubated at 37 degrees C for 72 hours. CellTiter-Glo (2.5 µL/well) is then added, and the plates are read in a ViewLux reader (Perkin-Elmer, clear luminescence filter, 1 second exposure, 1x binning) following a 10 minute incubation. All cells are dispensed in DMEM phenol-red free media containing 10% FBS.
# Library plates were screened starting from the lowest and proceeding to the highest concentration. Vehicle-only plates, with DMSO being pin-transferred to columns 5-48, will be inserted uniformly at the beginning and the end of each library in order to monitor and record any shifts in the background, which can be affected by reagent dispensers or loss in enzyme activity over time. Screening data will be corrected, normalized, and concentration-effect relationships will be derived by using publicly-available NCGC, NCATS curve fitting algorithms (http://ncgc.nih.gov/pub/openhts).
row,SMILES,outcome
1,O=[N+]([O-])c1ccc(-c2cc([N+](=O)[O-])c(O)c([N+](=O)[O-])c2)cc1,inconclusive
2,O=[N+]([O-])c1cc([N+](=O)[O-])c(-c2ccn[nH]2)s1,inconclusive
3,CCC(C)N(CC(C)C)C(=S)SC(NC(C)=O)C(Cl)(Cl)Cl (stereo unspecified),inconclusive
4,CCCCOc1ccc(C(=O)NCC2(N3CCCCC3)CCCCC2)cc1OC,inconclusive
5,CN1CCCCC1COC(=O)C1(O)c2ccccc2CCc2ccccc21 (stereo unspecified),inconclusive
6,CN(C)C(=O)c1cc([N+](=O)[O-])cc2c1-c1c(cc([N+](=O)[O-])cc1[N+](=O)[O-])C2=O,inconclusive
